Measurements reported in the supplement of paper PMC7125110.
± gives the standard error. The uncertainty is large for many entries.

B1: glmS ribozyme (parent)
chain: AUAAAAGCGCCAGAACUACAGAAAUGUAGUUGACGAGGAGGAGGUUUAUCGAAUUUUCGGCGGAUGCCUCCAAA

Variants of: B1
Test: self-cleavage kobs at 640 uM GlcN6P; higher = faster cleavage; RNA array
Conditions: with glucosamine-6-phosphate
In short: (§1)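 kobs was derived by fitting per-tile medians to one- or two-exponential decays after normalising signals to baseline and to non-cleaving reference variants. Those signals came from barcoded ribozyme variants transcribed in situ by E. coli RNA polymerase on sequenced MiSeq chips, followed through a hybridised Cy3 probe at 37 °C and imaged over ~14 h. Glucosamine-6-phosphate (40 μM to 10 mM) in HEPES/KCl/Mg(OAc)2 buffer was flowed in. Weighted Michaelis–Menten fits across concentrations then gave kcat and KM.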

Row | Variant | self-cleavage kobs at 640 uM GlcN6P
1 | AUAAAAGCGCCAGAACUACAGAAAUGUAGUUAACGAGGAGGAGCUUUAUCGAAUUUUCGGCGGAUGUCUCCAAA [G32A G44C C67U] | 1.75e-05 ± 1.7e-05 s⁻¹
2 | AUAAAAGCGCCAGAACUACAGAAAUGUAGUUAACGAGGAGGAGGUUUAUCGAAUUUUCGGCGGAUGCCACCAAA [G32A U69A] | 1.72e-05 ± 1.3e-05 s⁻¹
3 | AUAAAAGCGCCAGAACUACAGAAAUGUAGUUGUCGAGGAGGAGGUUUAUCGAAUUUUCGGCGGAUGCCUCGAAA [A33U C71G] | 1.69e-05 ± 1.6e-05 s⁻¹
4 | AUAAAAGCGCCAGAACUACAGAAAUGUAGUUGAUAAGGAGGAGGUUUAUCGAAUUGUCGGCGGAUGCCUCCAAA [C34U G35A U56G] | 4.83e-05 ± 2.9e-05 s⁻¹
5 | AUAAAAGCGCCAGAACUACAGAAAUGUAGUUGAUGAGUAGGAGGUUUAUGGAAUUUUCGGCGGAUGCCUCCAAA [C34U G38U C50G] | 1.85e-05 ± 1.8e-05 s⁻¹
6 | AUAAAAGCGCCAGAACUACAGAAAUGUAGUUGACGGGGAGGAGGUUUAUCGAAUUUUCGGCGGAUGCCUGCAAA [A36G C70G] | 1.6e-05 ± 1.4e-05 s⁻¹
7 | AUAAAAGCGCCAGAACUACAGAAAUGUAGUUGACGAAGAGGCGGUUUAUCGAAUUUUCGGCGGAUGCCUCCAAA [G37A A42C] | 2.63e-05 ± 2.4e-05 s⁻¹
8 | AUAAAAGCGCCAGAACUACAGAAAUGUAGUUGACGAUGAGGAGGUUUUUCGAAUUUUCGGCGGAUGCCUGCAAA [G37U A48U C70G] | 3.63e-05 ± 2.3e-05 s⁻¹
9 | AUAAAAGCGCCAGAACUACAGAAAUGUAGUUGACGAGUAGGAGGUUUAUCGAAUUUUCCGCGGAUGCCGCCAAA [G38U G59C U69G] | 4.12e-05 ± 2.4e-05 s⁻¹
10 | AUAAAAGCGCCAGAACUACAGAAAUGUAGUUGACGAGGCGGAUGUUUAUCGAAUUUUCGGCGGAUGCUUCCAAA [A39C G43U C68U] | 1.65e-05 ± 1.6e-05 s⁻¹
11 | AUAAAAGCGCCAGAACUACAGAAAUGUAGUUGACGAGGUGGAGGUUUAUCGAAUUUUCGGCGGAUACGUCCAAA [A39U G66A C68G] | 2.57e-05 ± 2e-05 s⁻¹
12 | AUAAAAGCGCCAGAACUACAGAAAUGUAGUUGACGAGGAAGACGUUCAUGGAAUUUUCGGCGGACGCCUCCAAA [G40A G43C U47C C50G U65C] | 5.22e-05 ± 4.3e-05 s⁻¹
13 | AUAAAAGCGCCAGAACUACAGAAAUGUAGUUGACGAGGAGUGGGUUUAUCGAAUUUUCGGCGGAUGCCUACAAA [G41U A42G C70A] | 0.0126 ± 0.0084 s⁻¹
14 | AUAAAAGCGCCAGAACUACAGAAAUGUAGUUGACGAGGAGGAAGUUUAUCGAAGUUUCGGCGGAUGCCUCCAAA [G43A U54G] | 2.3e-05 ± 1.4e-05 s⁻¹
15 | AUAAAAGCGCCAGAACUACAGAAAUGUAGUUGACGAGGAGGAGGUCUAUCGAAUUUUGGGCGGAUGCCUCCAAA [U46C C58G] | 3.56e-05 ± 2.7e-05 s⁻¹
16 | AUAAAAGCGCCAGAACUACAGAAAUGUAGUUGACGAGGAGGAGGUGUAUUGAAUUUUCGGCGGAUGCCACCAAA [U46G C50U U69A] | 3.62e-05 ± 2.2e-05 s⁻¹
17 | AUAAAAGCGCCAGAACUACAGAAAUGUAGUUGACGAGGAGGAGGUUUAAUGAAUUUUCGGCGGAUGCUUCCAAA [U49A C50U C68U] | 3.99e-05 ± 3.3e-05 s⁻¹
18 | AUAAAAGCGCCAGAACUACAGAAAUGUAGUUGACGAGGAGGAGGUUUAUGGAAUUGUCUGCGGAUGCCUCCAAA [C50G U56G G59U] | 5.46e-05 ± 3.4e-05 s⁻¹
19 | AUAAAAGCGCCAGAACUACAGAAAUGUAGUUGACGAGGAGGAGGUUUAUUUAAUUUUCGGAGGAUGCCUCCAAA [C50U G51U C61A] | 2.75e-05 ± 2.6e-05 s⁻¹
20 | AUAAAAGCGCCAGAACUACAGAAAUGUAGUUGACGAGGAGGAGGUUUAUCUAAUUUUCGGCGGCUGCCGCCAAA [G51U A64C U69G] | 3.57e-05 ± 3.2e-05 s⁻¹
21 | AUAAAAGCGCCAGAACUACAGAAAUGUAGUUGACGAGGAGGAGGUUUAUCGCAUUUUCGGCGGAUGCCUGGAAA [A52C C70G C71G] | 2.9e-05 ± 2.1e-05 s⁻¹
22 | AUAAAAGCGCCAGAACUACAGAAAUGUAGUUGACGAGGAGGAGGUUUAUCGGAUUUUCGGCGGAUGCCACCAAA [A52G U69A] | 5.45e-05 ± 2.8e-05 s⁻¹
23 | AUAAAAGCGCCAGAACUACAGAAAUGUAGUUGACGAGGAGGAGGUUUAUCGUAUUUGCGGCGGAUGCCUCCAAA [A52U U57G] | 3.12e-05 ± 1.9e-05 s⁻¹
24 | AUAAAAGCGCCAGAACUACAGAAAUGUAGUUGACGAGGAGGAGGUUUAUCGAGUUUUCGGCGGUUGACUCCAAA [A53G A64U C67A] | 2.95e-05 ± 2.4e-05 s⁻¹
25 | AUAAAAGCGCCAGAACUACAGAAAUGUAGUUGACGAGGAGGAGGUUUAUCGAGUUUUAGGCGGAUGCGUCCAAA [A53G C58A C68G] | 3.65e-05 ± 1.9e-05 s⁻¹
26 | AUAAAAGCGCCAGAACUACAGAAAUGUAGUUGACGAGGAGGAGGUUUAUCGAUUUUUCUGCGGAUGCCUACAAA [A53U G59U C70A] | 3.77e-05 ± 3.1e-05 s⁻¹
27 | AUAAAAGCGCCAGAACUACAGAAAUGUAGUUGACGAGGAGGAGGUUUAUCGAACUUUCGGCGGAUGCAUCCAAA [U54C C68A] | 2.31e-05 ± 1.6e-05 s⁻¹
28 | AUAAAAGCGCCAGAACUACAGAAAUGUAGUUGACGAGGAGGAGGUUUAUCGAAGUUUCUGCGGAUGCCUCCAAA [U54G G59U] | 2.38e-05 ± 2.1e-05 s⁻¹

Variants of: B1
Test: self-cleavage kobs at 160 uM GlcN6P; higher = faster cleavage; RNA array
Conditions: with glucosamine-6-phosphate
In short: as §1

Row | Variant | self-cleavage kobs at 160 uM GlcN6P
29 | AUAAAAGCGCCAGAACUACAGAAAUGUAGUUGACGAGUAGGAGGUUUAUCGAAUUUUCCGCGGAUGCCGCCAAA [G38U G59C U69G] | 2.57e-05 ± 2.5e-05 s⁻¹
30 | AUAAAAGCGCCAGAACUACAGAAAUGUAGUUGACGAGGAGGAGGUUUAUCGGAUUUUCGGCGGAUGCCACCAAA [A52G U69A] | 6.3e-05 ± 3.4e-05 s⁻¹

Variants of: B1
Test: self-cleavage kobs at 2500 uM GlcN6P; higher = faster cleavage; RNA array
Conditions: with glucosamine-6-phosphate
In short: as §1

Row | Variant | self-cleavage kobs at 2500 uM GlcN6P
31 | AUAAAAGCGCCAGAACUACAGAAAUGUAGUUGACGAGUAGGAGGUUUAUCGAAUUUUCCGCGGAUGCCGCCAAA [G38U G59C U69G] | 5.19e-05 ± 3.9e-05 s⁻¹
32 | AUAAAAGCGCCAGAACUACAGAAAUGUAGUUGACGAGGAAGACGUUCAUGGAAUUUUCGGCGGACGCCUCCAAA [G40A G43C U47C C50G U65C] | 2.76e-05 ± 2.7e-05 s⁻¹
33 | AUAAAAGCGCCAGAACUACAGAAAUGUAGUUGACGAGGAGGAGGUCUAUCGAAUUUUGGGCGGAUGCCUCCAAA [U46C C58G] | 1.25e-05 ± 1.2e-05 s⁻¹
34 | AUAAAAGCGCCAGAACUACAGAAAUGUAGUUGACGAGGAGGAGGUUUAUCGUAUUUGCGGCGGAUGCCUCCAAA [A52U U57G] | 2.12e-05 ± 1.9e-05 s⁻¹
35 | AUAAAAGCGCCAGAACUACAGAAAUGUAGUUGACGAGGAGGAGGUUUAUCGAGUUUUCGGCGGUUGACUCCAAA [A53G A64U C67A] | 4.59e-05 ± 2.6e-05 s⁻¹
36 | AUAAAAGCGCCAGAACUACAGAAAUGUAGUUGACGAGGAGGAGGUUUAUCGAUUUUUCUGCGGAUGCCUACAAA [A53U G59U C70A] | 5e-05 ± 3.3e-05 s⁻¹
37 | AUAAAAGCGCCAGAACUACAGAAAUGUAGUUGACGAGGAGGAGGUUUAUCGAACUUUCGGCGGAUGCAUCCAAA [U54C C68A] | 3.25e-05 ± 1.7e-05 s⁻¹

In a second layout: entries from further up

| Row | Variant | self-cleavage kobs at 2500 uM GlcN6P |
| --- | --- | --- |
| 34 | AUAAAAGCGCCAGAACUACAGAAAUGUAGUUGACGAGGAGGAGGUUUAUCGUAUUUGCGGCGGAUGCCUCCAAA [A52U U57G] | 2.12e-05 ± 1.9e-05 s⁻¹ |
| 36 | AUAAAAGCGCCAGAACUACAGAAAUGUAGUUGACGAGGAGGAGGUUUAUCGAUUUUUCUGCGGAUGCCUACAAA [A53U G59U C70A] | 5e-05 ± 3.3e-05 s⁻¹ |
